According to US10626058B2, “Urea ammonium sulphate-based composition and method for the manufacture thereof” (YARA INTERNATIONAL ASA, priority 2015, dated 2020):
Like-named read-outs stand apart in the source and are kept apart here. The name of at least one read-out is uncertain.

Type: physicochemical
Protocol: For lab scale experiments, 1.2 kg of solid fertilizer material was added to a lab scale drum. In a next step, the nBTPT material was slowly added. A residence time of 10 minutes was applied and the rotating speed of the drum was consequently the same in each experiment. In case a moisture repellent coating was added, a nebulizer was used and depending on the order of addition, the moisture repellent coating was added before or after addition of the nBTPT material. Before use, the moisture repellent coating was preheated to 80° C. Larger scale experiments with amounts up to 40 kg of fertilizer material were performed in a concrete mixer.
The samples were stored under several conditions, dependent on the type of samples: • 20° C. closed plastic container with head space (Climate chamber, 80% relative humidity) • Bagged at room temperature (20-25° C.) or in nissenhut • Open to air in nissenhut • Cylinder test in nissenhut • Open pile in nissenhut
For some samples, an accelerated stability test was done storing these samples at elevated temperatures: • Oven of 30° C. closed plastic container • Oven of 30° C. open to air • 30° C./60% RH open to air • 70° C. closed plastic container
Typically, a day/night cycle is generated in the nissenhut, with temperature fluctuations between 0 to 42° C. and fluctuations of relative humidity between 20 and 90%, which can be compared with real life storage in silos.
HPLC analysis of nBTPT is done as described in the procedure CEN 15688-2007.

With CCCCNP(N)(N)=S [nBTPT, N-(n-butyl) thiophosphoric triamide] as the compound, how does the “recovery of nBTPT” value (nBTPT in solid particulate form on UAS, 28 days bagged storage at room temperature (20-25° C.)) read?
The value was “about 80%”.

And the “recovery of nBTPT” value (solid nBTPT (500 ppm) on UAS with moisture repellent coating (Novoflow 1029, NH, paraffin, VHO), 28 days in closed plastic containers with head space at 20° C./80% relative humidity)?
Its value is 23-41%.

What about the “recovery of nBTPT” value (solid nBTPT (500 ppm) on UAS, no coating, 28 days in closed plastic containers with head space at 20° C./80% relative humidity) of the same compound?
The value was 0%.
